The values that follow come from PMC4541044.

The chains behind the UniProt entries cited, without tags or fusion partners.
UniProt Q99814: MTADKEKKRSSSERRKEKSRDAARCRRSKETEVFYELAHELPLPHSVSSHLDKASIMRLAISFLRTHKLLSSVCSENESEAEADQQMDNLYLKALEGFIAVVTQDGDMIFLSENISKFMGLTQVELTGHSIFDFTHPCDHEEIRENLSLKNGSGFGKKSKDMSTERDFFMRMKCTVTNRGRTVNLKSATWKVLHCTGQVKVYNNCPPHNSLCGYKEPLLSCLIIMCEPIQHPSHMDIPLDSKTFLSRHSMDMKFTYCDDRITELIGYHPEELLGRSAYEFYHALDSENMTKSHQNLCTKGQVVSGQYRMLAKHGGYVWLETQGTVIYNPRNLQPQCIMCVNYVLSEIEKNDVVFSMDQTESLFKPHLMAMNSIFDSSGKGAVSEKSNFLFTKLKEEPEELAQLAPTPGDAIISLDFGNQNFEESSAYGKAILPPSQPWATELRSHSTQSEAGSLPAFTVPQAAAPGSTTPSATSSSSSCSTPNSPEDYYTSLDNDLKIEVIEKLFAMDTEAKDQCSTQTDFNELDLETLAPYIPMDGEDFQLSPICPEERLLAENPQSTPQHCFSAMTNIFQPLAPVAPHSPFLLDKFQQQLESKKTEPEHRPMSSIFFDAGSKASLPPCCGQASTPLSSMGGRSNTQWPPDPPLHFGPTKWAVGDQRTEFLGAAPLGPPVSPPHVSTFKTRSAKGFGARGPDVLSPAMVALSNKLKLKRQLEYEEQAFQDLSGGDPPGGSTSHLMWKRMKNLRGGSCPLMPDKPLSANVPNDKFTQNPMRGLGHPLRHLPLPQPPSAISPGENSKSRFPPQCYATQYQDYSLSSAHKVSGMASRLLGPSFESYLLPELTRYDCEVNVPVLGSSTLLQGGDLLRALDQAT
UniProt Q6GQQ9: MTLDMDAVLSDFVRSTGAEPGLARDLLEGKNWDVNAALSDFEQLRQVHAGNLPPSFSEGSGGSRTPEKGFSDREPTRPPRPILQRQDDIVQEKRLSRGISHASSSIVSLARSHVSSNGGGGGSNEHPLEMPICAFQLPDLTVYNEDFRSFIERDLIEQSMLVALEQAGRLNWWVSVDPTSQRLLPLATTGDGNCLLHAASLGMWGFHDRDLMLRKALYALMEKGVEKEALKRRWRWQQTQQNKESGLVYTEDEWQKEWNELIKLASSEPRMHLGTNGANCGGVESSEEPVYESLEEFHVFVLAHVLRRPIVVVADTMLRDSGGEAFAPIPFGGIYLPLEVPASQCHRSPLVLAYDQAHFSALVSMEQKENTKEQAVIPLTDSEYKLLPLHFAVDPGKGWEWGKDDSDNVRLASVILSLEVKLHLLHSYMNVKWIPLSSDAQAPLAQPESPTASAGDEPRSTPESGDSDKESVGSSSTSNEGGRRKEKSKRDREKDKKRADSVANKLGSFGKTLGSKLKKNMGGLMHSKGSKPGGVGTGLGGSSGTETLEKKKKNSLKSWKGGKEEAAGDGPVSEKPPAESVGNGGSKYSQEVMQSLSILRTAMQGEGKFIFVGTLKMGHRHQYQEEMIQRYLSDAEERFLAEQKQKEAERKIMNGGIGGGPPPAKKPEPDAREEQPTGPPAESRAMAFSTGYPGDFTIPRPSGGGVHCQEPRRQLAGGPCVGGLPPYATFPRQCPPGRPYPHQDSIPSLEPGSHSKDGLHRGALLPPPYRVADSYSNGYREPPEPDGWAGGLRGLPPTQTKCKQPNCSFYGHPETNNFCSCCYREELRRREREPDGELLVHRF

The target in the assay is HIF2α (encoded by EPAS1) (human (endogenous in HeLa)) (UniProt Q99814). In words: affinity purification with mass spectrometry; HeLa cells, 24 h at 1% O2; detergent-free lysis buffer (50 mM Tris-HCl pH 8, 150 mM NaCl, 2 mM EDTA, 1 mM DTT); immunoprecipitation with anti-HIF2α antibody [EPAS-1 (A-5)]; triplicate; Orbitrap Velos.

No constants are given. Whether binding was seen depends on the method and setting. In cells and extracts the contact can be indirect. A yes stands for co-enrichment or nearness to the bait. Other partners may have been found.

With “Cezanne (OTUD7B), endogenous (from UniProt Q6GQQ9 1-843) (enzyme)”, the binding result is recorded as “binds”.
